In patent publication US8980917B2, “Methods for treating or preventing brain infections” (The Johns Hopkins University, priority 2008, dated 2015):
“Also recorded” adds a separate entry of the source. At least one compound was matched to its structure with a doubt left.

How the values were obtained:
[1] = system: HBMEC; experiment: E. coli K1 binding and invasion assays in human BMEC (HBMEC); assay type: cell-based; conditions: strain RS218; for E. coli K1 invasion of HBMEC: HBMEC pretreated 30 mins, compared to vehicle control (DMSO)
Procedure: E. coli strain RS218 was grown overnight in BHI broth in the presence of streptomycin (50 μg/ml). Bacteria were resuspended in experimental medium [M199-HamF12 (1:1) containing 5% heat-inactivated fetal bovine serum, 2 mM glutamine, and 1 mM pyruvate] and added in a multiplicity of infection (MOI) of 100:1 to HBMEC grown in collagen-coated 24-well plates at 37° C. in 5% CO2 incubator for 90 min for binding assay as described previously (9, 10, 14, 28). HBMEC were washed four times with PBS to remove unbound bacteria, lysed in 0.025% Triton X-100 and plated for determinations of CFUs. The results were calculated as a percent of the initial inoculum and expressed as percent relative binding compared to percent binding of RS218 in the presence of vehicle control (DMSO). Each set was run in triplicates.
The HBMEC invasion assay with gentamicin treatment was performed to determine the number of viable intracellular bacteria recovered from the infected HBMEC, as previously described (9, 10, 14, 28). E. coli K1 strain RS218 was added to HBMEC as described above for binding assay. HBMEC were subsequently washed with RPMI 1640 and incubated with experimental media containing gentamicin (100 μg/ml) for 1 h to kill extracellular bacteria. The cells were washed again with PBS and lysed in 0.025% Triton X-100. The released intracellular bacteria were enumerated by plating on sheep blood agar plates. The results were calculated as a percent of the initial inoculum and expressed as percent relative invasion compared to percent invasion of RS218 in the presence of vehicle control (DMSO). Each set was run in triplicates.
To examine the effects of inhibitors and antagonists on E. coli K1 binding to and invasion of HBMEC, HBMEC were pretreated with inhibitors or antagonists for 30 mins before addition of E. coli, and then processed for binding and invasion assays as described above.
E. coli strain RS218 (O18:K1:H7), a cerebrospinal fluid isolate from a neonate with meningitis, was grown overnight in brain heart infusion (BHI) broth (Difco Laboratories, Detroit, Mich.). […] The results were calculated as a percent of the initial inoculum and expressed as percent relative binding compared to percent binding of RS218 in the presence of vehicle control (DMSO). […]
The BMEC invasion assay with gentamicin treatment^11 was performed to determine the number of viable intracellular bacteria recovered from the infected BMECs. […] The results were calculated as a percent of the initial inoculum and expressed as percent relative invasion compared to percent invasion of RS218 in the presence of vehicle control (DMSO). […]

[2] = system: human BMEC; experiment: Type III GBS binding and invasion assays in human BMEC; assay type: cell-based; conditions: strain K79; human BMEC pretreated 60 min; compared to vehicle control
Procedure: GBS. Logarithmic phase cultures of GBS grown in Todd-Hewitt broth at 37° C. were washed and suspended in tissue culture medium. Approximately 5×10^5 CFUs of GBS were added to confluent human BMEC grown in each well of a 24-well plate (Corning Costar, multiplicity of infection of 5 bacteria/cell). The plates were centrifuged at 800×g for 10 min to promote the contact of GBS to the surface of the human BMEC monolayer, and then they were incubated for 2 hr at 37° C. The monolayers were washed three times with PBS and incubated with medium containing gentamicin (100 μg/ml) and penicillin (5 μg/ml) at 37° for 2 hr to kill extracellular bacteria. The monolayers were washed again, lysed, and viable intracellular bacteria were enumerated by culturing onto sheep blood agar plates. The percent invasion was calculated as (the number of intracellular bacteria divided by the number of bacteria inoculated)×100. Each assay was run in triplicate and also repeated at least twice. In one set of experiments the total GBS associated with human BMEC were quantified by the above procedure except that the incubation with gentamicin/penicillin was omitted.
Briefly, human BMEC were pretreated with AACOCF3 for 60 min, and then processed for type III GBS and E. coli K1 binding and invasion assays, as described above. […]

[3] = system: HBMEC monolayers; experiment: C. neoformans traversal (transcytosis) of HBMEC monolayers; assay type: cell-based, human; conditions: strains B-3501A and H99
[4] = system: C. neoformans strains H99 and B3501A; experiment: Growth of C. neoformans in experimental medium with human serum; assay type: cell-based, Cryptococcus neoformans; conditions: at 50 μM, 37° C.
[5] = human BMEC pretreated 60 min, compared to vehicle control

Compound | E. coli K1 invasion of HBMEC [1] | E. coli K1 binding to human BMEC [1, 5] | E. coli K1 invasion of human BMEC [1, 5] | type III GBS binding to human BMEC [2] | type III GBS invasion of human BMEC [2] | inhibition of traversal of C. neoformans across the HBMEC monolayer ([3]; at 50 μM, compared to vehicle control (0.1% ethanol), p<0.05) | traversal of C. neoformans across the HBMEC monolayer ([3]; varying concentrations) | growth of C. neoformans (CFUs at 0, 9 and 24 h) [4]
O=C(Nc1cccc2c(=O)cc(-c3nnn[nH]3)oc12)c1ccc(OCCCCc2ccccc2)cc1 [pranlukast] | effective in inhibiting E. coli invasion of HBMEC in a dose-dependent manner | – | – | – | – | – | – | –
CC(C)(O)c1ccccc1CC[C@@H](SCC1(CC(=O)O)CC1)c1cccc(/C=C/c2ccc3ccc(Cl)cc3n2)c1 [montelukast] | effective in inhibiting E. coli invasion of HBMEC in a dose-dependent manner | did not affect their binding to human BMEC | inhibited (A) type III GBS strain K79 invasion and (B) E. coli K1 strain RS218 invasion in a dose-dependent manner | did not affect their binding to human BMEC | inhibited (A) type III GBS strain K79 invasion and (B) E. coli K1 strain RS218 invasion in a dose-dependent manner | significant | exhibited a dose-dependent inhibition of C. neoformans traversal of the HBMEC monolayers; also recorded: inhibited traversal of C. neoformans strains B-3501A and H99 across the HBMEC monolayer in a dose-dependent manner | did not affect the growth of C. neoformans
